Screening data

From PubChem BioAssay record AID1159506 (NCATS, 2015).

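Luminescence from an EWS-FLI1 target-promoter (NR0B1) reporter, set against a CMV-promoter reporter, two days after silencing single genes in TC32 Ewing sarcoma cells. Each siRNA was applied at 20 nM. A z-score of the log NR0B1-over-CMV signal, less the median of siRNAs with the same seed; more negative means a stronger specific loss of the NR0B1 reporter.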

This is part of the screen; most of the strongest results are not listed here. Sequences are the guide (antisense) strand, without overhang.

strand	target gene	seed-corrected z-score
UAUCGUUCAUCUGAGUAAC	CEP350	-0.3639
GCAGCCCUAAUUUUAUGGU	CMTM1	0.2676
UUCUUUAUCUGAUAGGCUU	VPS37B	-1.556
UUCUUUUAACAAGUCGGUG	MTA1	-1.333
AUCGAUAUUAGGGUCCUAC	TEP1	-0.09062
UUCUUGUUUGAAAGUAUUU	FLYWCH2	-0.1353
UUAUAGGUAAAUCUUUUCC	ETV3	0.4266
UUGGAGUAGAUGUAGUAGU	TNFSF14	0.8225
AAUAUACCUAUGAUGAACG	GRSF1	2.849
AGCUUAGUGAAUUAAUUGC	HS3ST3B1	0.4043
UCGACAACCUGAUAAAUCC	FSIP2	0.2354
UAAAGUGCAAGUUUUGUUU	RASD1	0.4892
ACUAGUACAACAAUUCUUG	ZNF556	-1.132
AAACCAUAAGGAAAUAUUC	UQCRH	0.01821
UACUGUUAACAUAACCUUC	NAA40	-0.01291
UUCCGAUGGACUUUGGUCU	SYT2	-0.01892
UCUCCUUCAAUAUAGGCCU	DGKG	0.02136
UUCAAUCAAAGCUUCUUGC	EIF3M	0.3589
UAAAUAGACUGGGUCAAGG	SCARA3	-0.2138
UUUGGUUGGUGGGCAUUCC	C10orf71	-0.557
UCCUGAUACUCCUUCUCCC	IFFO1	0.4211
UGUUAUAUGAGCAUCUUGG	SYT14	0.1375
UCUGAGAUGGGCAUGUCCG	LOC389906	-0.5149
UAUGGGUAAUGAAGAAUGG	ZNF321P	0.1149
UAAACGUAGAAGACAGACC	PSME4	1.106
UACUUGGGCACUGAAGGUC	COL9A3	0.7055
UUAGAUCACAAACAAACCG	SNRNP48	-0.3845
ACAAGAUCCAUAAAUUUUC	E2F6	0.3208
AAUUCUCCUAUUUUUAGUC	LOC728376	0.8606
UGAAGUUAUUGCUAGGAUC	MCCC1	0.4282
UUACCUGAAAAAUGCCUUC	POPDC3	0.2796
UAAGCACAAUUCAUAUUUC	CLEC1B	0.2129
UAUUCUCAUAGUCUGGGUC	MCEMP1	-0.6976
UCCAUAUCAAGUAAGGCAC	STXBP4	0.1454
UUGCAUUUCCGGGAGCAGC	ISOC2	0.2165
AGACAGUAAAGUUCGACUC	KMT2D	-0.6382
AACGGAUUAAUUGUUUUAG	PACRGL	-0.03169
UACUUUUCCAGGAAUCAUC	GLA	0.8881
UCUGUCUUGGCGUCGCUGU	CLIC3	0.2228
UGGGAUUCCACCAAGAAGG	NGB	0.1967
AAUGCUCCCACUCUGACCC	VWA2	1.195
UCUCAUGUACUGAAUGACC	RIOK1	-0.1139
UGAGGUAUGAAUGGUGGUG	RBMS2	-0.04679
AAUCUGACUUGGUCGAUGG	COX18	-0.321
AAAGGCAUAGUUCUCGCUC	WDR13	0.695
UCAGAUUUCGCAGCGCAUC	TRADD	0.4461
UAGAUCUUGAGACACGACG	MKI67	-0.3789
UCCUUGUCUUCCAUGUUCC	ZNF263	-0.8458
UCCGAUGGUACUUUCAUAC	EPB41	-0.9398
AUACAUUCCAACCACGUUG	C7orf73	0.2303
UUUGUCAUCCCUAUGAGGC	SNX1	0.3735
UCUCGAACAACUGGAUGCC	RAB35	-0.332
UUAACAUCUCCAAUGGUCG	SCML2	-0.05422
UGCGUACCACCGUUCUUGC	LOC441907	-0.8724
AGCUUAUACAAUAUUCUCC	SNRNP40	-0.5556
AUAGUCUGUAGUGCUAAUC	PAPOLB	-0.4315
UCAUCGGCAAAGCUCAACU	INSM2	0.5501
AGUAGGUUCACAGAGGAGU	ASIP	-0.8216
UGCAUAGACAAGUUCAUCC	ESRRG	-0.4189
ACGGGUACAAUUUCCACGC	MBNL3	-0.07794
UUCUGCGUUCUUGUAUUCG	KLRC2	0.8846
UAGGAGCAAACGAUGAUAC	TMEM215	0.4033
UCAGUUGUCAAAAUUGGUA	MTX3	-0.6658
UAUCCGAGGACUGAAGACC	FAT4	-0.2191

For reference, 4 entries once more:

strand	target gene	seed-corrected z-score
AUACAUUCCAACCACGUUG	C7orf73	0.2303
AGCUUAGUGAAUUAAUUGC	HS3ST3B1	0.4043
UCAUCGGCAAAGCUCAACU	INSM2	0.5501
UAAAUAGACUGGGUCAAGG	SCARA3	-0.2138